These results are taken from paper PMC8625561.

By UniProt entry, the sequences of proteins in these tests, tags left out.
UniProt P10275: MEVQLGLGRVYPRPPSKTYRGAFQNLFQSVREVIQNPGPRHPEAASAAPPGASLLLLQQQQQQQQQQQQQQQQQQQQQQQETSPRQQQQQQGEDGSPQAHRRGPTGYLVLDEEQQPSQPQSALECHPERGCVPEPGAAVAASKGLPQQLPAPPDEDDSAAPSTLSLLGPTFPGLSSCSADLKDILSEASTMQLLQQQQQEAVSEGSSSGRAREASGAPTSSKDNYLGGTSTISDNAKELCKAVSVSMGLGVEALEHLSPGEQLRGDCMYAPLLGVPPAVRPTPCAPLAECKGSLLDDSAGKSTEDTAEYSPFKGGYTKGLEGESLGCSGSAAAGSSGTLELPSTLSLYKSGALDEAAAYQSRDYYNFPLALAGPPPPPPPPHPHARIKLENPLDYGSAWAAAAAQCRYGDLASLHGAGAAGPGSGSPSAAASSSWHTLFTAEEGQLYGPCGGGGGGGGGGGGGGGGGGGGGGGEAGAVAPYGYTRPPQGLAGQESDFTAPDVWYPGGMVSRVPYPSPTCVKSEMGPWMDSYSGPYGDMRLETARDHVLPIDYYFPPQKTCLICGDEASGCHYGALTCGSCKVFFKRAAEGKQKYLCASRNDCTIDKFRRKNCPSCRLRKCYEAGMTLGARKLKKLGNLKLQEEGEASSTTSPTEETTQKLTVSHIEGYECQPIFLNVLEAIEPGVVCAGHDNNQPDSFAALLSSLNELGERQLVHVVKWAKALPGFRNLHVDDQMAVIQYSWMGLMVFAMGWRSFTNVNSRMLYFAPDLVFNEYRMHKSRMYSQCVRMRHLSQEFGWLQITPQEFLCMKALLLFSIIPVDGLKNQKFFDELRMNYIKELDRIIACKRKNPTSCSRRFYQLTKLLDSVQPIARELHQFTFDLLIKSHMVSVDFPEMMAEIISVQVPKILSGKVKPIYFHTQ

The test has as its target androgen receptor (human (endogenous in LNCaP)) (UniProt P10275). In words: co-IP; LNCaP cells lysed with 0.1% NP40; AR antibody added to the lysate overnight at 4 °C, protein A or protein G agarose beads, Western blotting; Input and IgG as controls. In general terms: In western blotting, separated proteins are transferred to a membrane and probed.

These are yes or no findings as the source states them, for the method shown. Binding seen in cells or lysates may run through a third protein. Some entries that bind do so weakly or less than the wild type.

B1: NONO (protein, UniProt Q15233 1-471)
chain: MQSNKTFNLEKQNHTPRKHHQHHHQQQHHQQQQQQPPPPPIPANGQQASSQNEGLTIDLKNFRKPGEKTFTQRSRLFVGNLPPDITEEEMRKLFEKYGKAGEVFIHKDKGFGFIRLETRTLAEIAKVELDNMPLRGKQLRVRFACHSASLTVRNLPQYVSNELLEEAFSVFGQVERAVVIVDDRGRPSGKGIVEFSGKPAARKALDRCSEGSFLLTTFPRPVTVEPMDQLDDEEGLPEKLVIKNQQFHKEREQPPRFAQPGSFEYEYAMRWKALIEMEKQQQDQVDRNIKEAREKLEMEMEAARHEHQVMLMRQDLMRRQEELRRMEELHNQEVQKRKQLELRQEEERRRREEEMRRQQEEMMRRQQEGFKGTFPDAREQEIRMGQMAMGGAMGINNRGAMPPAPVPAGTPAPPGPATMMPDGTLGLTPPTTERFGQAATMEGIGAIGGTPPAFNRAAPGAEFAPNKRRRY
As to B1, the binding result is “binds”.
